In PubChem BioAssay AID662 (National Center for Advancing Translational Sciences (NCATS), 2007) one finds AC50 data, which are given here for 41 molecules.

Molecules are shown by their SMILES. Several values for one entry are separate records, joined by “and”; a condition that tells them apart may be missing. Equal values may be shown once. The list shows a part of the results. Further columns of the screen follow, without active or inactive calls. The list favours compounds with an active or inconclusive main result. Words in brackets tell the shape of the fitted curve; partial curves, single points and poor fits give uncertain potencies.

This test is described as follows: Cell signaling CRE-BLA (Fsk stim). The conditions noted are these: CHO CRE-bla reporter (cAMP response element driving beta-lactamase), forskolin EC10, beta-lactamase ratio; measured here: 460 nm blue channel. The method, boiled down: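 qHTS titration format; CRE-bla CHO reporter; stimulus EC10 NKH 477, a water-soluble forskolin. Read: CCF4 460/530 nm ratio. Potency expressed as AC50 for activators or inhibitors.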
Regarding `O=c1c2ccccc2nc(-c2ccco2)n1-c1ccncc1`, the AC50 is 20 µM [rising, single point]. The value for `O=[N+]([O-])/C=C/c1ccccc1` was 10 µM [rising, partial curve]; that for `O=C(c1cc(-c2ccncc2)nc2ccccc12)N1CCC2(CC1)OCCO2` was 3.98 µM [falling, single point]; that for `O=C(Cc1ccccc1)OCc1ccccc1` was 0.501 µM [falling, full curve, poor fit]. Consider `CN(C)C(=S)SSC(=S)N(C)C`, for which the AC50 was 31.6 µM [falling, single point]. The value for `Cn1nc(-c2ccc(OCC(=O)N3CCN(Cc4ccccc4)CC3)cc2)c2ccccc2c1=O` was 0.251 µM [rising, partial curve, poor fit]. The value for `Cc1cc(OCC(=O)Nc2cc(C)nn2-c2ccccn2)c2c3c(c(=O)oc2c1)CCC3` was 25.1 µM [rising, single point]; that for `Cc1nnc2ccc(-c3cccc(C(F)(F)F)c3)nn12` was 15.8 µM [rising, partial curve, poor fit]; that for `CN1Cc2c(ccc3c2OCO3)[C@@H]2[C@@H](O)Cc3cc4c(cc3[C@@H]21)OCO4` was 12.6 µM [rising, partial curve] and 3.98 µM [rising, full curve].

For `O=C1C[C@@H]2OCC=C3CN4CC[C@]56c7ccccc7N1[C@H]5[C@@H]2[C@H]3C[C@@H]46`, the AC50 is 39.8 µM [falling, partial curve, poor fit]. As to `Nc1c(C(=O)OC2CCCCC2)c2nc3ccccc3nc2n1CC1CCCO1` (stereo unspecified), the AC50 is 12.6 µM [rising, partial curve]. In the case of `CCC(=NC1CC1)c1c(O)n(C2CCCCC2)c(=O)[nH]c1=O`, the AC50 was 10 µM [rising, partial curve]. The value for `Nc1c(C(=O)NCCc2ccccc2)c2nc3ccccc3nc2n1CCN1CCOCC1` was 12.6 µM [rising, partial curve]; that for `c1cc2n(c1)-c1c(ccc3c1OCO3)CNC2c1ccc2c(c1)OCO2` (stereo unspecified) was 5.01 µM [falling, full curve]. Next, `CCCOC(=O)COc1cc(C)cc2oc(=O)c3c(c12)CCC3`: 1.26 µM [falling, partial curve]. The value for `c1ccc2cc3c(cc2c1)-c1cccc2cccc-3c12` was 1 µM [rising, full curve]; that for `CCCCn1c(O)c(C(CC)=NCCc2ccccc2)c(=O)[nH]c1=O` was 7.94 µM [rising, partial curve]; that for `Cc1c(C(=O)c2ccc3ccccc3c2)c2cccc3c2n1[C@H](CN1CCOCC1)CO3` was 12.6 µM [falling, partial curve, poor fit]. In the case of `CC(C)NC[C@H](O)c1ccc(N)c(C#N)c1`, the AC50 is 20 µM [falling, single point]. The value for `CCOC(=O)c1c(C)n(Cc2ccccc2)c2ccc(OCC(O)CN3C(=O)CNC3=O)cc12` (stereo unspecified) was 12.6 µM [rising, partial curve]; that for `CCCCCCN=C(CC)c1c(O)n(CCCC)c(=O)[nH]c1=O` was 7.94 µM [rising, partial curve]. In the case of `CCOC(=O)c1cn2nc(OP(=S)(OCC)OCC)cc2nc1C`, the AC50 is 10 µM [rising, single point]. Next, `C=C1[C@@H]2CC[C@H]3[C@@]4(C)C[C@@H](O[C@@H]5O[C@H](CO)[C@H](OS(=O)(=O)O)[C@@H](OS(=O)(=O)O)[C@@H]5OC(=O)CC(C)C)C[C@@H](C(=O)O)[C@H]4CC[C@@]3(C2)[C@H]1O`: 5.01 µM [rising, single point]; `CN1Cc2ccccc2[C@@H]2c3cccc4[nH]cc(c34)C[C@H]21`: 12.6 µM [rising, full curve]; `N[C@@]1(C(=O)O)CC[C@H](C(=O)O)C1`: 10 µM [falling, full curve]. For `C[C@H]1C[C@H](C)C(=O)[C@@H]([C@H](O)CC2CC(=O)NC(=O)C2)C1`, the AC50 was 15.8 µM [falling, partial curve, poor fit]. Next, `C[N+]1=Cc2cc3c(cc2CC1)OCO3`: 20 µM [rising, partial curve]; `C=CCN1C[C@H](C)N([C@H](c2ccc(C(=O)N(CC)CC)cc2)c2cccc(O)c2)C[C@H]1C`: 31.6 µM [falling, single point]; `CC(=O)Nc1ccccc1OC(=O)N(C)C`: 25.1 µM [falling, single point].

As to `Cc1cccnc1NC1=NCC(C)S1` (stereo unspecified), the AC50 is 0.00501 µM [falling, full curve, poor fit]. The value for `CCCCn1c(NC(=O)c2ccco2)c(C(=O)OCC)c2nc3ccccc3nc21` was 12.6 µM [rising, partial curve]. The value for `COc1ccc2c(c1)CC1(CN2C)C(=O)NC(=O)N(CCc2ccccc2)C1=O` (stereo unspecified) was 3.98 µM [rising, single point]; that for `Fc1ccccc1N1CCN(Cc2ccc3c(c2)OCO3)CC1` was 1 µM [falling, full curve]; that for `O=C(c1cc(-c2cccnc2)nc2ccccc12)N1CCC2(CC1)OCCO2` was 25.1 µM [rising, single point].

As to `O=C(COc1ccccc1)N1CCN(CC2CC3C=CC2C3)CC1` (stereo unspecified), the AC50 was 0.126 µM [falling, single point]. Regarding `CCN(CC)CCO[C@H]1CC[C@@]2(C)C(=CC[C@@H]3[C@H]2CC[C@]2(C)C(=O)CC[C@H]32)C1`, the half-maximal activity concentration (AC50) is 7.94 µM [falling, partial curve, poor fit]. The value for `CC1CN(O)C2CCc3nonc3C12O` (stereo unspecified) was 1.58 µM [falling, partial curve, poor fit]. Take `Cc1ccc(Cn2nnnc2CN2CCC(n3nnc4cc(C(F)(F)F)ccc43)CC2)cc1`: the AC50 was 10 µM [rising, partial curve].

As for `CCCCn1c(O)c(C(C)=NC(C)c2ccccc2)c(=O)[nH]c1=O` (stereo unspecified), the AC50 was 12.6 µM [rising, single point].

Take `Cn1cc(C(=O)N2CCC3(CC2)OCCO3)c2c3ccccc3n(C)c2c1=O`: the concentration at half-maximal activity (AC50) is 20 µM [rising, single point]. On to `ClC1=C(Cl)C2(Cl)C3C(Cl)C(Cl)CC3C1(Cl)C2(Cl)Cl` (stereo unspecified), for which the AC50 was 0.794 µM [rising, full curve].
